# According to the supplement of paper PMC7666118:
# Protein sequences, listed by entry. Tags and fused reporters are not part of them. Lines headed by an entry give the natural chain unless they say otherwise; changes in a name come on top.
# UniProt Q6BDS2: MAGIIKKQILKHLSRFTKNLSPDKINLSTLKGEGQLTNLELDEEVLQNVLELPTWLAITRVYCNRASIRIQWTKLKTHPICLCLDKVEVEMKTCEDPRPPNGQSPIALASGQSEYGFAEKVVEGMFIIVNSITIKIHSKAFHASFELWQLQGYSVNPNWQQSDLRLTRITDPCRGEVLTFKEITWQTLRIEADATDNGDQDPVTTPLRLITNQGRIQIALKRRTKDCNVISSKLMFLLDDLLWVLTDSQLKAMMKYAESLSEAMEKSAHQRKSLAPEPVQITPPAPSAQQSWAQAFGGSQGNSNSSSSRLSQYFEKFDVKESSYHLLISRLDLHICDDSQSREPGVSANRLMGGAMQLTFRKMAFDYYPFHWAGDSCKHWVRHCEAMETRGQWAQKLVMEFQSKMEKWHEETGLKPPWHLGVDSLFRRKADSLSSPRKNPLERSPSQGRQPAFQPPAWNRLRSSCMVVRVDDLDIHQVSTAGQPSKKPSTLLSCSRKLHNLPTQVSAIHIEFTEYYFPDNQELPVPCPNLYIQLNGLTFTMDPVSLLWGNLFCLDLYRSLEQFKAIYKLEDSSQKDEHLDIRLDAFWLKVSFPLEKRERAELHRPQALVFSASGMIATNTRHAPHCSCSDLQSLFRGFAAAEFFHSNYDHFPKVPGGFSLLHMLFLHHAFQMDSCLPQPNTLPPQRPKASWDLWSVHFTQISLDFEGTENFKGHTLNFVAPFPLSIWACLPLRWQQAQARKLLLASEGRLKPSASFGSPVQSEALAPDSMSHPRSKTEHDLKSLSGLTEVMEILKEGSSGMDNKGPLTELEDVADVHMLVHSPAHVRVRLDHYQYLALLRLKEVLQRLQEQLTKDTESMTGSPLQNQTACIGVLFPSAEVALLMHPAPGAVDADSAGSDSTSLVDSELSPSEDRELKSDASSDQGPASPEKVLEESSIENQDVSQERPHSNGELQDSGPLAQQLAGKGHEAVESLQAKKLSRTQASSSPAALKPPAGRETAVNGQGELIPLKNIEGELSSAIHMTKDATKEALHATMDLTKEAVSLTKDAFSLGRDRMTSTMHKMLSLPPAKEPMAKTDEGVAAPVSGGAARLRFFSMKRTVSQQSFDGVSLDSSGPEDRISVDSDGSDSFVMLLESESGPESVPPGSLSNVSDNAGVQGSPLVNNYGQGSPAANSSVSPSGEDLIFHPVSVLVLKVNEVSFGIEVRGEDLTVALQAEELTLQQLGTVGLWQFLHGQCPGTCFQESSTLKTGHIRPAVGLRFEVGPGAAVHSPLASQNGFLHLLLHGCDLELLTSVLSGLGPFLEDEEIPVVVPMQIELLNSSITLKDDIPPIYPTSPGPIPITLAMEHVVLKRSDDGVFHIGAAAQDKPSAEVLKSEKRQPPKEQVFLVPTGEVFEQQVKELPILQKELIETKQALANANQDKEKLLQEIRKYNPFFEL
# UniProt P48553, whole entry: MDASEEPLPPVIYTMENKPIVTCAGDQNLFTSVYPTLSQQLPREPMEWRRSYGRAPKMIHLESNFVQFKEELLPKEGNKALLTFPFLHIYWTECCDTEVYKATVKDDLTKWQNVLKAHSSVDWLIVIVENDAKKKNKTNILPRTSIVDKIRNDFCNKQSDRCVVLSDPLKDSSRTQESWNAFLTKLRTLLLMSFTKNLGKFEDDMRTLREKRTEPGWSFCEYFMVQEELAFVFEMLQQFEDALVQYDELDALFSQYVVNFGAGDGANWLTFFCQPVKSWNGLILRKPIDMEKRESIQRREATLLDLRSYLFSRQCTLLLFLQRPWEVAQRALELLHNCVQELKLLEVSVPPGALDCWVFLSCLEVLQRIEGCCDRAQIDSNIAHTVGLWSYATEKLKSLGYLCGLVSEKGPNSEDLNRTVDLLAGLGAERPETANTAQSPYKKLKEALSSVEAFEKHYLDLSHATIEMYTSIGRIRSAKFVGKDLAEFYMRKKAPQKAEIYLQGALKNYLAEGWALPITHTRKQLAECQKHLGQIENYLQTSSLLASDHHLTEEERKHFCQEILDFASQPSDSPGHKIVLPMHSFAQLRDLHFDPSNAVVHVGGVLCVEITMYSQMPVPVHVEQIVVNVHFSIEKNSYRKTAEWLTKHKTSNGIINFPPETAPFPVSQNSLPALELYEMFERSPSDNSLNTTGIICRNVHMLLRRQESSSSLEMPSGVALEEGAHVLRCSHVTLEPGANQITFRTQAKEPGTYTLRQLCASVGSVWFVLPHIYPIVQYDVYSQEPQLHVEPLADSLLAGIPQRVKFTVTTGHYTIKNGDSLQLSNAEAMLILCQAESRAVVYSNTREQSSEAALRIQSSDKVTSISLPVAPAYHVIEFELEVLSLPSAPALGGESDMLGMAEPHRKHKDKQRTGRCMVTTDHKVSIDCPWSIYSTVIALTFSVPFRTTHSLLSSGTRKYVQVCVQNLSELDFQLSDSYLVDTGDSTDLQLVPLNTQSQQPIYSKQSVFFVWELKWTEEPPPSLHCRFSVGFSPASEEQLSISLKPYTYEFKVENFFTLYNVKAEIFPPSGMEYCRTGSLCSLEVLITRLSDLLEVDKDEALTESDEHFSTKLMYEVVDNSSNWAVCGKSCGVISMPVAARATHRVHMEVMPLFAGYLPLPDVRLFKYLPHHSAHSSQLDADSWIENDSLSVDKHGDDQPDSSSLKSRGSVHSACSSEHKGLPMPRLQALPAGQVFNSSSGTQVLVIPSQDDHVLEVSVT
# UniProt Q15643: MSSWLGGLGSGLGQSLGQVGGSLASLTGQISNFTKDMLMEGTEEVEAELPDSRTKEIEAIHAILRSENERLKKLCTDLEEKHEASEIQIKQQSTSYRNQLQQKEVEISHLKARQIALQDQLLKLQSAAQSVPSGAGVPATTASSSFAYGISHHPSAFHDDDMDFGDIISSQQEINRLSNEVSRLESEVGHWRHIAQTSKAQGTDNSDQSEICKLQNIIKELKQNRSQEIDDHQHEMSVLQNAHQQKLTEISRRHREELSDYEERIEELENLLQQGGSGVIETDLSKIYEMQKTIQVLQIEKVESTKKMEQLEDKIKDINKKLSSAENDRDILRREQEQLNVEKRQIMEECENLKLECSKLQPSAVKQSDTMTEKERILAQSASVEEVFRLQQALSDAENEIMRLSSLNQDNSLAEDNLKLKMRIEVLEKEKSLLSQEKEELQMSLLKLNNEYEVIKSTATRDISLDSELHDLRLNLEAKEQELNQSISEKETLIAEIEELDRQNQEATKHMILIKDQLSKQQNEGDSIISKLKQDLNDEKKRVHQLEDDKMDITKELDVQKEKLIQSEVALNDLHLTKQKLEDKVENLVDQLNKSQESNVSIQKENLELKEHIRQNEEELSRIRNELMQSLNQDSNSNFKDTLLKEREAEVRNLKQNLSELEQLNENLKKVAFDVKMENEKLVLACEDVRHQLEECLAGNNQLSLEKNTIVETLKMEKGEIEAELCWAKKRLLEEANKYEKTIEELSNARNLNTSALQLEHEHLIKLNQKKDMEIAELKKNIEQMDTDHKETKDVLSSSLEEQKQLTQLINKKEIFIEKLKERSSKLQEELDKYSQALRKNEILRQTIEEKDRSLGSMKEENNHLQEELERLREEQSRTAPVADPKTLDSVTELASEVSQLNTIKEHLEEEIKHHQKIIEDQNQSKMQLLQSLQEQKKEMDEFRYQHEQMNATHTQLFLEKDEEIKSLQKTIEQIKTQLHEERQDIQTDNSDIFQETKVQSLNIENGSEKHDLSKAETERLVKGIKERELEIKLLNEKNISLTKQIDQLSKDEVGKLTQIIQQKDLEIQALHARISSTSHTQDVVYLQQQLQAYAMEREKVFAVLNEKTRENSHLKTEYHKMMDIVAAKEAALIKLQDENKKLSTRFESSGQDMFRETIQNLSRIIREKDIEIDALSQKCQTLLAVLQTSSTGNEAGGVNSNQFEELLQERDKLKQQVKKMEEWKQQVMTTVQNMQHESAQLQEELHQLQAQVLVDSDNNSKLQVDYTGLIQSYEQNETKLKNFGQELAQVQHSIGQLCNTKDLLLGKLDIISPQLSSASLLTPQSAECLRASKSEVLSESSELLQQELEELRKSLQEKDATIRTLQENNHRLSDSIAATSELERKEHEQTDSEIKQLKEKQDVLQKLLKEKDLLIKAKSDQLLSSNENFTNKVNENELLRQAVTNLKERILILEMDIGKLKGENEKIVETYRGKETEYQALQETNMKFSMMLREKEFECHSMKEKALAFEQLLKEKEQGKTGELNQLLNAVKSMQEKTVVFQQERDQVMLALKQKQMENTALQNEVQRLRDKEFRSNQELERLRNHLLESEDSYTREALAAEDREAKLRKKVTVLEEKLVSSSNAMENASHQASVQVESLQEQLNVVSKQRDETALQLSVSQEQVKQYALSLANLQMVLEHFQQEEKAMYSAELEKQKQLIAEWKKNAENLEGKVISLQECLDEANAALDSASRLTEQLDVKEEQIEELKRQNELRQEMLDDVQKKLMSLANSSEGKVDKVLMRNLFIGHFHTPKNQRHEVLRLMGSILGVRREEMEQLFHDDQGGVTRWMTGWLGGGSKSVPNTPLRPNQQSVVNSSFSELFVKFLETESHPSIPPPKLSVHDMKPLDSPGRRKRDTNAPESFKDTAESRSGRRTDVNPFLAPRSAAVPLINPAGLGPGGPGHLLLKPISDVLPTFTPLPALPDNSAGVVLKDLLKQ
# UniProt Q15654: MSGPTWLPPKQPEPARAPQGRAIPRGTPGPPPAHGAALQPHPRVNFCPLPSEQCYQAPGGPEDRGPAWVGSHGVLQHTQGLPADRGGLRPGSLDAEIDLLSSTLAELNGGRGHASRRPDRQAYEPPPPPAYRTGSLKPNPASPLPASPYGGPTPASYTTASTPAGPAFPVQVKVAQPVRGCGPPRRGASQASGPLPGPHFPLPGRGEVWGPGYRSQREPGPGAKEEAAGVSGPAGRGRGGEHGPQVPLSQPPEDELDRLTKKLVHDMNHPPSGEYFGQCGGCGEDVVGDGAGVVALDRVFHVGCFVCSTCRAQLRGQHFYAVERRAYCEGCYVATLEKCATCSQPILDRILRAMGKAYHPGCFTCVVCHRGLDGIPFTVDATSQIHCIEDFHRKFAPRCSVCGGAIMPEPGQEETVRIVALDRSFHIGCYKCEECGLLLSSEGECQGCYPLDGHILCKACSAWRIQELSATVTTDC
# UniProt Q14694, whole entry: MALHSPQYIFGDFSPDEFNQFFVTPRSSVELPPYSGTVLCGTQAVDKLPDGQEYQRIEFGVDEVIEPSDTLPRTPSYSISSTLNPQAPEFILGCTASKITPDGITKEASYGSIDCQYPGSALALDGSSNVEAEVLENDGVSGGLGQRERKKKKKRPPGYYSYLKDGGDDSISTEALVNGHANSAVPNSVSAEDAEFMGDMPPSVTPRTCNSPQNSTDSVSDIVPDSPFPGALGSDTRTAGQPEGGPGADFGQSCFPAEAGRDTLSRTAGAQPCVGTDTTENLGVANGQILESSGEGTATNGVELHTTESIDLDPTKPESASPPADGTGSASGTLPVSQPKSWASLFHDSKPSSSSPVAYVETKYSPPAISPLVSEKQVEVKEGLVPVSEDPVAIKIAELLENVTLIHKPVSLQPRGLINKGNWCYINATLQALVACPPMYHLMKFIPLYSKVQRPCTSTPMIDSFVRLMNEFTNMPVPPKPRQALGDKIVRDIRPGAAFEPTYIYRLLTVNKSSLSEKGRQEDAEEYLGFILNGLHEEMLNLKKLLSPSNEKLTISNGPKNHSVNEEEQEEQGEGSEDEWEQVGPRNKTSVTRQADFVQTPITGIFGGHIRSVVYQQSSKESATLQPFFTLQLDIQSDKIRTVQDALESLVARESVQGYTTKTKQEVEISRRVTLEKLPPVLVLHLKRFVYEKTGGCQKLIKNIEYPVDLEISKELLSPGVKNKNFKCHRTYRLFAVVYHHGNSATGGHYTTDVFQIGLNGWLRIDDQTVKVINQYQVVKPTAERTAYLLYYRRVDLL
# UniProt Q9BZL1: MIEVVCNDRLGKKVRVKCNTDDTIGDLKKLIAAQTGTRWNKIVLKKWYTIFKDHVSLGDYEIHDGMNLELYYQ
# UniProt P68366, whole entry: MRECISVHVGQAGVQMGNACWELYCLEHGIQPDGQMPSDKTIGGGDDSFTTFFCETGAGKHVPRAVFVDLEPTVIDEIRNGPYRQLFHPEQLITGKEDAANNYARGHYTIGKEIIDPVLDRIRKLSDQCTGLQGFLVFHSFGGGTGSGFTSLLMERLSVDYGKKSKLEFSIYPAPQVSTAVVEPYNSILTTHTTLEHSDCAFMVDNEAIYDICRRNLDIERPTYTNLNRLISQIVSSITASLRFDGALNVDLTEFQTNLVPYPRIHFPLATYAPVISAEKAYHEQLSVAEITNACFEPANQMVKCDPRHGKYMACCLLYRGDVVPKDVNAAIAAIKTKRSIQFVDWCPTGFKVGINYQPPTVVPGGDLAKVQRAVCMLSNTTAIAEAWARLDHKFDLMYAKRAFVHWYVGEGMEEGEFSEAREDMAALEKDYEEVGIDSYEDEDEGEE
# This is one part of the list.
# Compound: COc1ccc(Cn2ccc3ccc(C(=O)NO)cc32)cc1
# Assay: dose-dependent thermal stabilisation call (2D-TPP, DLPTP, 10% FDR) (binary (1 = stabilised)); higher = stabilised by the compound
# Conditions: system: HL-60 intact cells; concentration range 0.04-10 µM
row,Target,dose-dependent thermal stabilisation call
1,TRAF2 (UniProt Q12933),inactive: 0
2,UHRF1BP1 (UniProt Q6BDS2),inactive: 0
3,TRAPPC10 (UniProt P48553),inactive: 0
4,TRIP11 (UniProt Q15643),inactive: 0
5,TRIP6 (UniProt Q15654),inactive: 0
6,USP10 (UniProt Q14694),inactive: 0
7,UBAC2 (UniProt Q8NBM4),inactive: 0
8,UBL5 (UniProt Q9BZL1),inactive: 0
9,TUBA4A (UniProt P68366),inactive: 0
10,TRMT61B (UniProt Q9BVS5),inactive: 0

# From entry 9 up to 10, as listed above:
row,Target,dose-dependent thermal stabilisation call
9,TUBA4A (UniProt P68366),inactive: 0
10,TRMT61B (UniProt Q9BVS5),inactive: 0
